Some of the results follow. The main result of the screen is listed elsewhere. These columns were measured beside it and carry no call. Most of these compounds were active or inconclusive in the main read-out, so they are no random draw. Potencies come from curve fits of mixed quality, noted in brackets.
Assay: qHTS Assay for Identifying the Cell-Membrane Permeable IMPase Inhibitors
Conditions: CHO-M1 cells, IP1 accumulation, HTRF TR-FRET ratio; measured here: donor channel 620 nm AC50

SMILES	AC50
O=C(NCc1cccnc1)c1ccc(COc2ccccc2Br)o1	5.62 µM [rising, partial curve, poor fit]
c1ccc(CN(CC2=NCCN2)c2ccccc2)cc1	0.501 µM [falling, full curve, poor fit]
Cc1[nH]ccc(=O)c1OCc1ccc(Cl)cc1	35.5 µM [falling, single point]
CC(C)(C)OC(=O)N1CCC[C@H]1c1nnc(SCc2c(F)cccc2Cl)o1	0.0251 µM [rising, partial curve, poor fit]
COc1ccccc1C1=NN(C(=S)Nc2ccccc2)C(c2ccco2)C1 (stereo not drawn)	6.31 µM [falling, single point]
CN1CCN(C=NC2=NN(c3cccc(C(F)(F)F)c3)CC2)CC1	28.2 µM [falling, partial curve]
CCOC(=O)N1CCC(NC(=O)c2ccc3c(c2)N(Cc2ccc(F)cc2)CCS3)CC1	12.6 µM [falling, single point]
COc1ccc(N2CCN(S(=O)(=O)c3ccc(OC)cc3)CC2)cc1	31.6 µM [falling, single point]
O=C(O)COc1ccc2nsnc2c1Cl	15.8 µM [rising, single point]
N#CCc1ccc(NC(=O)Nc2cccc(Cl)c2)cc1	31.6 µM [falling, single point]
CCN(C(=O)c1ccc(C(C)(C)C)cc1)c1nnc(Cn2nnc3ccccc32)s1	25.1 µM [falling, single point]
C/C(Cl)=C/Cn1c(=O)c2c(nc(Br)n2Cc2ccccc2)n(C)c1=O	1.26 µM [rising, partial curve]
O=C(Nc1ccccc1O)c1cc(S(=O)(=O)N2CCCC2)ccc1Cl	0.126 µM [falling, full curve]
COc1ccc(C(=O)NCc2ccc(-c3nc4ccccc4s3)cc2)cc1	0.158 µM [falling, full curve, poor fit]
Cc1c(/C=C(\C#N)C(=O)Nc2cccc(Cl)c2)c2ccccc2n1Cc1ccccc1	0.126 µM [falling, single point]
COc1ccc(-c2noc(-c3ccc(C)cc3Cl)n2)cc1OC	35.5 µM [falling, single point]
COc1ccc(C(c2nnnn2C2CCCC2)N2CCC(C)CC2)cc1 (stereo not drawn)	0.0631 µM [falling, full curve, poor fit]
CC(=O)Nc1cccc(NC(=O)CSc2nnc(Cc3cccn3C)n2CCc2ccccc2)c1	0.0501 µM [falling, full curve, poor fit]
CCN(CC)CC(=O)N(CC(=O)Nc1c(C)cc(C)cc1C)C1CCCCC1	31.6 µM [falling, single point]
COc1cc2c(cc1OC)CN(CC(=O)Nc1cccc(C)c1)CC2	5.62 µM [falling, single point]
Cc1ccc(-n2c(=S)[nH]c3c(oc4ccccc43)c2=O)cc1	2.51 µM [rising, full curve]
C=CCn1c(CNc2ccc(C)cc2)nnc1SCC(=O)N/N=C/c1ccc(O)cc1O	31.6 µM [falling, single point]

Fetched by compound from above:
SMILES	AC50
Cc1[nH]ccc(=O)c1OCc1ccc(Cl)cc1	35.5 µM [falling, single point]
COc1cc2c(cc1OC)CN(CC(=O)Nc1cccc(C)c1)CC2	5.62 µM [falling, single point]

Next part.

SMILES	AC50
COc1ccc(S(=O)(=O)N(CC(=O)Nc2ccc(OC)cc2OC)c2ccc(Cl)cc2)cc1	2 µM [falling, partial curve]
Cc1ccc(C(=O)NC(=S)Nc2ccccc2C(F)(F)F)cc1	3.98 µM [rising, full curve]
O=C(CN(CCO)c1ccccc1)NC12CC3CC(CC(C3)C1)C2	0.1 µM [rising, full curve]
COc1ccc(/C=N/O)cc1COc1ccc(NC(C)=O)cc1	0.02 µM [rising, full curve, poor fit]
CCOC(=O)C(NC(=O)Nc1cccc(C)n1)(OCC(F)(F)F)C(F)(F)F (stereo not drawn)	0.631 µM [rising, full curve, poor fit]
COc1ccc(-c2cc(-c3ccccc3)c(C#N)c(SCC(O)CS(=O)(=O)Cc3ccccc3)n2)cc1 (stereo not drawn)	20 µM [falling, single point]
CN=c1scc(C)n1/N=C/c1ccc(O)c(O)c1O	12.6 µM [falling, partial curve]
Cc1cc(=O)oc2cc3c(cc12)OCCN3	1.26 µM [rising, full curve, poor fit]
CC(C)n1nnnc1SCC(=O)Nc1ccccc1N1CCOCC1	0.0251 µM [rising, full curve, poor fit]
COc1ccc(CCNC(=O)CSc2ccc3ccccc3c2)cc1OC	11.2 µM [rising, partial curve]
Cn1c2c(c(=O)n(C)c1=O)C(NS(=O)(=O)c1ccccc1)(C(F)(F)F)C(=O)N2 (stereo not drawn)	0.398 µM [rising, partial curve, poor fit]
COCCSc1ccccc1C(=O)NCC1CCCO1 (stereo not drawn)	10 µM [falling, partial curve, poor fit]
COc1ccc(C(=O)/C(C)=N/O)cc1OC	31.6 µM [falling, single point]
CC1=NN(c2cccc(C(=O)O)c2)C(=O)/C1=C\C=C\c1ccco1	0.794 µM [falling, full curve]
CCCSc1nc(C)c(-c2csc(C(C#N)=C3CCCC3)n2)cc1C#N	20 µM [rising, partial curve, poor fit]
CC(SC1CCCC1)C(=O)NC(C)(C#N)C(C)C (stereo not drawn)	0.0251 µM [rising, full curve, poor fit]
COc1ccc(C(=O)Nc2nc3ccc(S(C)(=O)=O)cc3s2)cc1	17.8 µM [rising, single point]
CCNc1nc(N)nc(Oc2ccc(OCCOc3ccccc3)nn2)n1	6.31 µM [falling, single point]
CCOC(=O)C(C)Sc1nc(-c2cccs2)ccc1C#N (stereo not drawn)	0.631 µM [falling, partial curve]
Brc1cc(Br)c2nc(-c3cccs3)ccc2c1	12.6 µM [rising, partial curve, poor fit]
NC(=O)CC1Nc2cccc3cccc(c23)NC1=O (stereo not drawn)	10 µM [falling, partial curve]

Reference: PubChem BioAssay AID901 (National Center for Advancing Translational Sciences (NCATS), 2007)
